US11291666B2, “Uses” (INTRA-CELLULAR THERAPIES, INC., priority 2016, dated 2022)
At least one compound was matched to its structure with a doubt left.

Test system: BV2 cells
Experiment: RT-qPCR of selected genes in BV2 cells with ITI-214, cyclase activators and PKA/PKG inhibitors
Assay type: cell-based, mouse
Conditions: 10 μM forskolin, 5 μM DEANO or 100 nM ANP
Description: In a further experiment a group of genes is selected for further analysis by RT-qPCR. For comparison, genes are analyzed which have been implicated in the scientific literature in microglial and astrocyte activation, including genes in the complement pathway.
All sample values are normalized to an average of 3 reference genes and to vehicle control (ΔΔCt). The error bars represent the mean+/−SEM (n=4). From left to right, for each cytokine grouping, the bars indicate samples treated with: LPS, 0.1 μM 214+LPS, 0.4 μM 214+LPS, 1.1 μM 214+LPS, 3.3 μM 214+LPS, 10 μM 214+LPS, for each particular gene shown on the X-axis. Significant changes between LPS and 10 μM ITI-214+LPS (A) and Vehicle and 10 μM ITI-214 (B) are marked on the X-axis gene names and are calculated using a one-way ANOVA. * p<0.05, **p<0.01, ***p<0.001, ****p<0.0001.
In one particular experiment, BV2 cells are treated with 10 μM forskolin (FSK) to activate adenylyl cyclases, 5 μM DEANO to activate soluble guanylyl cyclase, or 100 nM atrial natriuretic peptide (ANP) to activate particulate guanylyl cyclase. […] Upon combining forskolin with ITI-214 some of the effects of ITI-214 inhibition can be increased. […] However, LIF reverts to LPS-level expression when forskolin is added. […]

## C=C[C@@]1(C)CC(=O)[C@]2(O)[C@@]3(C)[C@@H](O)CCC(C)(C)[C@@H]3[C@H](O)[C@H](OC(C)=O)[C@@]2(C)O1 [forskolin, reference compound]
  effect of the activator alone on LPS induction of the selected genes: little or no effect
